Source: patent US20110135647A1
These are yes or no findings as the source states them, for the method shown. Binding seen in cells or lysates may run through a third protein. Some binding calls cover weakened binding; strength is not graded here. Where a sequence is shown, tags or fusion partners need not be part of it. Each block holds one binder with its values, some of them ahead of it.

Assays:
[1] = target: T1, HA-tagged PBK/TOPK (HA-PBK/TOPK), wild type (human) (UniProt Q96KB5); assay: in vitro pull-down: lysate of HA-PBK/TOPK-transfected COS-7 cells mixed with GST-p47, GST-beads, anti-HA blot
T1 sequence: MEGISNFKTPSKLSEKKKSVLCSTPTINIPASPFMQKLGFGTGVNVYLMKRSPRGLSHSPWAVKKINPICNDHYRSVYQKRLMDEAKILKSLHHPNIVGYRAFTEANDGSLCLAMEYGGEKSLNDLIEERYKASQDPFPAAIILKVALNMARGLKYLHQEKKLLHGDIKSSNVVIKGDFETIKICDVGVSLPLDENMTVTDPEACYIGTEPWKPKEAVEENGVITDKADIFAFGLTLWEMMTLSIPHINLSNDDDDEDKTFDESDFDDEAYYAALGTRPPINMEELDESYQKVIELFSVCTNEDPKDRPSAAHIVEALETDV

[2] = target: T2, p47 protein (approximately 47 kDa protein pulled down, identified by MALDI-TOF) (human) (UniProt Q9UNZ2); assay: in vitro protein pull-down, silver staining, MALDI-TOF (data not shown)
T2 sequence: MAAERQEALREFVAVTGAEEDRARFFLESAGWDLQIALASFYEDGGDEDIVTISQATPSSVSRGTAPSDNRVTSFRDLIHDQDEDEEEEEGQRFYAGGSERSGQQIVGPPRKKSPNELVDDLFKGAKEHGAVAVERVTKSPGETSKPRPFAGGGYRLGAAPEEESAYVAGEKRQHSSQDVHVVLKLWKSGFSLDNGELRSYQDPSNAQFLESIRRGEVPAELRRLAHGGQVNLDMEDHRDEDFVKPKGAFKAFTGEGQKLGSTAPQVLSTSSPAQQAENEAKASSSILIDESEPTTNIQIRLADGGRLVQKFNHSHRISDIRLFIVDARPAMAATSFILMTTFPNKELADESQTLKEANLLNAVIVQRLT

[3] = target: GST-p47/myc-p97 complex (human) (UniProt Q5RBG3); assay: co-immunoprecipitation with anti-GST or anti-myc antibody from COS-7 cells transfected with the three constructs
[4] = target: GST-p47/myc-p97 complex (human) (UniProt Q5RBG3); assay: co-immunoprecipitation with myc-tag antibody from COS-7 cells transfected with the three constructs

binding [1]: binds
B1: GST-tagged p47 (GST-p47) recombinant protein (protein, not shown: a dimerising Fc or GST)
chain: T2 sequence

binding [2]: binds
B2: GST-tagged PBK/TOPK (GST-PBK/TOPK) recombinant protein (enzyme, not shown: a dimerising Fc or GST)
chain: T1 sequence

binding [3]: binds | binding [4]: binds
B3: HA-tagged PBK/TOPK (HA-PBK/TOPK), wild type (enzyme, not shown: small tags and cut ends)
chain: T1 sequence
